Data as given in PubChem BioAssay AID1508597 (Cure First, 2020)
The deposit covers about 2,100 reagents; below is an unselected part. 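Calls flag viability under 80% in either arm, not effects specific to rucaparib; the reference for percent is not stated.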 Not given: the 100% reference.

Assay: 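Genes whose silencing sensitises or protects ovarian cancer cells against rucaparib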 (primary screen)
System: human ovarian carcinoma lines grown from tumours: OCI-P5x (papillary serous) and OCI-C5x (clear cell)
Knock-down reagent: siRNA pool against human genes, 1.25 pmol siRNA per well
Duration: 72 h or 96 h, depending on the cell culture
Treatment: rucaparib 20 µM (about IC30) or vehicle, present until read-out
Measurement: 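Luminescent ATP-based viability assay read 72 or 96 h after transfection, depending on culture, given as normalised percent viability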
Reading the numbers: viability, normalised: higher = more viable cells remaining
Rule for the call: 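Active when normalised viability falls below 80 percent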
Meaning of the calls: active = viability under 80%; inactive = viability 80% or more

| target | rucaparib or vehicle | cell line | technical replicate | viability, normalised (%) | call |
| --- | --- | --- | --- | --- | --- |
| ING3 | Rucaparib | OCI-C5x (clear cell) | 1 | 44.6 | active |
| ING3 | Rucaparib | OCI-C5x (clear cell) | 2 | 37.9 | active |
| ING3 | Rucaparib | OCI-C5x (clear cell) | 3 | 45.1 | active |
| ING3 | Rucaparib | OCI-P5x (serous) | 1 | 54.1 | active |
| ING3 | Rucaparib | OCI-P5x (serous) | 2 | 43.4 | active |
| ING3 | Rucaparib | OCI-P5x (serous) | 3 | 27.4 | active |
| ING3 | Vehicle | OCI-C5x (clear cell) | 1 | 38.7 | active |
| ING3 | Vehicle | OCI-C5x (clear cell) | 2 | 62.1 | active |
| ING3 | Vehicle | OCI-C5x (clear cell) | 3 | 68.4 | active |
| ING3 | Vehicle | OCI-P5x (serous) | 1 | 72.2 | active |
| ING3 | Vehicle | OCI-P5x (serous) | 2 | 74.3 | active |
| ING3 | Vehicle | OCI-P5x (serous) | 3 | 85 | inactive |

Quoted from the listing for reference:
| target | rucaparib or vehicle | cell line | technical replicate | viability, normalised (%) | call |
| --- | --- | --- | --- | --- | --- |
| ING3 | Rucaparib | OCI-C5x (clear cell) | 2 | 37.9 | active |
| ING3 | Rucaparib | OCI-C5x (clear cell) | 3 | 45.1 | active |

The list goes on.
| target | rucaparib or vehicle | cell line | technical replicate | viability, normalised (%) | call |
| --- | --- | --- | --- | --- | --- |
| ENY2 | Rucaparib | OCI-C5x (clear cell) | 1 | 53.3 | active |
| ENY2 | Rucaparib | OCI-C5x (clear cell) | 2 | 41.7 | active |
| ENY2 | Rucaparib | OCI-C5x (clear cell) | 3 | 47.7 | active |
| ENY2 | Rucaparib | OCI-P5x (serous) | 1 | 78.2 | active |
| ENY2 | Rucaparib | OCI-P5x (serous) | 2 | 73.6 | active |
| ENY2 | Rucaparib | OCI-P5x (serous) | 3 | 79.8 | active |
| ENY2 | Vehicle | OCI-C5x (clear cell) | 1 | 53.3 | active |
| ENY2 | Vehicle | OCI-C5x (clear cell) | 2 | 54.5 | active |
| ENY2 | Vehicle | OCI-C5x (clear cell) | 3 | 57.2 | active |
| ENY2 | Vehicle | OCI-P5x (serous) | 1 | 72.5 | active |
| ENY2 | Vehicle | OCI-P5x (serous) | 2 | 43.1 | active |
| ENY2 | Vehicle | OCI-P5x (serous) | 3 | 54.4 | active |
